In one data set the target is Hfq K56A (UniProt P0A6X3). In words: SPR. The following applies: SPR: same buffer, 25 C, recombinant protein, label: 5'-32P (EMSA) or 5'-biotin (SPR), probe letters rebuilt from the primers and the genome.
In another data set the target is Hfq Y25A (UniProt P0A6X3). In words: SPR. The following applies: SPR: same buffer, 25 C, recombinant protein, label: 5'-32P (EMSA) or 5'-biotin (SPR), probe letters rebuilt from the primers and the genome. In general terms: In EMSA bound probe runs differently from free probe, usually more slowly.
Where [1] appears, read: KD,agg, two-site parallel model.

The exact form of at least one protein or probe is not confirmed.

Broadly, the Kd is a measure of binding affinity in units of concentration. For “GCAGCGUUACAUUCCCAUCCACUGGGGAAAGACGCGGCGCUGAUUGGUGAAGUGGUGGAACGUAAAGGUGUUCGUCUUGCCGGUCUGUAUGGCGUGAAACGAACCCUCGAUUUACCACACGCCGAACCGCUUCCGCGUAUAUGCUAAUAAAAUUCUAAAUCUCCUAUAGUUAGUCAAUGACCUUUUGCACCGCUUUGCGGUGCUUUCCUGGAAGAACAAAAUGUCAUAUACACCGAUGAGUGAUCUCGGACAACAAGGGUUGUUCGACAUCACUCGGACAAAUAUUGGAUCCGCUCGG [fhlA220 mRNA]”, the equilibrium dissociation constant (Kd) with Hfq K56A (KD2, microscopic, ka2 2e5 M-1s-1, kd2 7e-2 s-1) came to 400 nM; in the data set with Hfq K56A (setting [1]), 131 nM; with Hfq Y25A (KD1, microscopic, ka1 2e6 M-1s-1, kd1 3.0e-1 s-1), 160 nM; in the data set with Hfq Y25A (setting [1]), 176 nM.

The values are drawn from PMC2946933.
